Results deposited as PubChem BioAssay AID1159578 (Peter MacCallum Cancer Centre, 2015)
The whole screen tested about 18,000 reagents; below is an unselected part. About 1,030 of all reagents (5.7%) count as active. 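Inactive calls also include pools with fewer than 3300 nuclei, whose migration was not assessed.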 Raw values are not corrected between plates. No sequences are given here.

Purpose: 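Genome-wide hunt for genes controlling movement of lymphatic endothelial cells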 (primary screen)
System: human lymphatic endothelial cells
Reagent: siRNA pool against human genes, 40 nM
Time to read-out: 48 h after transfection
Read-out: 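High-content imaging of dye-stained cells in a scratch assay measures filled wound area and nuclei per well; duplicate means given as ratio to mock and robust z-score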
Direction: migration robust z-score: higher = faster migration into the scratch; migration relative to mock: higher = more scratch area covered than mock; nuclei per well: higher = more cells in the well
Hit rule: 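Pools averaging fewer than 3300 nuclei are never called; remaining pools count as changed when migration robust z lies outside -2 to 2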
Meaning of the calls: active = migration changed; inactive = no migration change, or too few cells

| gene | migration robust z-score | migration class with cell-count check | migration relative to mock | nuclei per well, duplicate mean | outcome |
| --- | --- | --- | --- | --- | --- |
| SETD2 (SET domain containing 2, histone lysine methyltransferase) | -2.42 | migration z below -2; enough cells | 0.34 | 4340 | active |
| TLK1 (tousled like kinase 1) | 0.54 | migration z between -2 and 2; enough cells | 0.91 | 4994 | inactive |
| EZH2 (enhancer of zeste 2 polycomb repressive complex 2 subunit) | -0.28 | migration z between -2 and 2; enough cells | 0.75 | 4384 | inactive |
| PADI2 (peptidyl arginine deiminase 2) | -1.04 | migration z between -2 and 2; enough cells | 0.6 | 6785 | inactive |
| RACGAP1 (Rac GTPase activating protein 1) | 1.18 | migration z between -2 and 2; enough cells | 1.19 | 4774 | inactive |
| USP25 (ubiquitin specific peptidase 25) | -2.59 | migration z below -2; enough cells | 0.3 | 3622 | active |
| CCNT2 (cyclin T2) | 0.3 | migration z between -2 and 2; enough cells | 0.97 | 6970 | inactive |
| GATA3 (GATA binding protein 3) | -0.16 | migration z between -2 and 2; enough cells | 0.84 | 5748 | inactive |
| H3C4 (H3 clustered histone 4) | 0.01 | migration z between -2 and 2; enough cells | 0.89 | 6092 | inactive |
| FLACC1 (flagellum associated containing coiled-coil domains 1) | 0.62 | migration z between -2 and 2; enough cells | 1.04 | 6262 | inactive |
| PWWP2B (PWWP domain containing 2B) | 0.44 | migration z between -2 and 2; enough cells | 1 | 4826 | inactive |
| MXRA5 (matrix remodeling associated 5) | 0.88 | migration z between -2 and 2; enough cells | 1.12 | 7246 | inactive |
| CBX5 (chromobox 5) | -0.35 | migration z between -2 and 2; enough cells | 0.79 | 6030 | inactive |
| FLYWCH1 (FLYWCH-type zinc finger 1) | 0.44 | migration z between -2 and 2; enough cells | 1 | 5048 | inactive |
| USP9Y (ubiquitin specific peptidase 9 Y-linked) | 1.71 | migration z between -2 and 2; enough cells | 1.13 | 6416 | inactive |
| TSPYL4 (TSPY like 4) | -0.38 | migration z between -2 and 2; enough cells | 0.78 | 5644 | inactive |
| ADA2 (adenosine deaminase 2) | 0.96 | migration z between -2 and 2; enough cells | 0.99 | 4904 | inactive |
| POLD2 (DNA polymerase delta 2, accessory subunit) | -1.76 | migration z between -2 and 2; enough cells | 0.46 | 3868 | inactive |
| CENPB (centromere protein B) | 0.24 | migration z between -2 and 2; enough cells | 0.94 | 7174 | inactive |
| UFC1 (ubiquitin-fold modifier conjugating enzyme 1) | -0.76 | migration z between -2 and 2; enough cells | 0.66 | 3916 | inactive |
| SERPINH1 (serpin family H member 1) | -0.24 | migration z between -2 and 2; enough cells | 0.82 | 5302 | inactive |
| MRE11 (MRE11 double strand break repair nuclease) | 0.86 | migration z between -2 and 2; enough cells | 0.97 | 5026 | inactive |
| SH2B2 (SH2B adaptor protein 2) | -0.56 | migration z between -2 and 2; enough cells | 0.74 | 5326 | inactive |
